For at least one compound, name, drawing or mass did not settle the structure.
Legend:
[1] = tested on: TAMR cells (tamoxifen resistant MCF-7); experiment: Cell number growth assay in estrogen free medium, TAMR cells; type: cell-based, human; conditions: 10 nM E2, 7 days
Experimental: (§1) For estrogen-free cell culture, MCF-7 cells were cultured in phenol red free RPMI-1640 supplemented with 10% dextran coated charcoal stripped fetal bovine serum (CS-FBS) for 3 days before estrogen or antiestrogen treatment. The tamoxifen resistant (TAMR) cell line was established as described by Shaw et al. (2006). Briefly, the parental MCF-7 cells were continuously exposed for 6 months to 1 μM tamoxifen in phenol red free RPMI 1640 medium containing 10% CS-FBS until the cells developed resistance to the growth inhibitory effect of tamoxifen. MCF-7 cells sensitive to tamoxifen, cultured in the same medium without tamoxifen, were designated as tamoxifen sensitive (TAMS) cells. Cells were seeded onto 6-well plates at a density of 5×10^4 cells per well, in triplicate, in 3 ml of complete medium containing 10% or 0.2% FBS. Cells were cultured under these conditions for up to 10 days with medium changed every other day until harvesting. To compare the cell proliferation rate, the total cell number in each well was quantified with a haemocytometer every 2 days. Cell viability was assessed by using trypan blue.

[2] = tested on: TAMS cells (tamoxifen sensitive MCF-7); experiment: Cell number growth assay in estrogen free medium, TAMS cells; type: cell-based, human; conditions: 10 nM E2, 7 days
Experimental: as §1

C[C@]12CC[C@@H]3c4ccc(O)cc4CC[C@H]3[C@@H]1CC[C@@H]2O [E2, β-estradiol]
growth of TAMR cells [1]: loss of response to E2 and of tamoxifen sensitivity
growth of TAMS cells [2]: retained the response to E2 and tamoxifen sensitivity
